According to publication PMC11570694:
No constants are given. Whether binding was seen depends on the method and setting. Binding seen in cells or lysates may run through a third protein. Here binding means that the protein was enriched with, or labelled near, the bait; the list need not be complete. Tags and fused reporters may be left off the sequences shown.

Molecular target: T1, EGFP-tagged TTC5 expressed in 293 T-REx TTC5 KO cells (human) (UniProt Q8N0Z6)
T1 sequence: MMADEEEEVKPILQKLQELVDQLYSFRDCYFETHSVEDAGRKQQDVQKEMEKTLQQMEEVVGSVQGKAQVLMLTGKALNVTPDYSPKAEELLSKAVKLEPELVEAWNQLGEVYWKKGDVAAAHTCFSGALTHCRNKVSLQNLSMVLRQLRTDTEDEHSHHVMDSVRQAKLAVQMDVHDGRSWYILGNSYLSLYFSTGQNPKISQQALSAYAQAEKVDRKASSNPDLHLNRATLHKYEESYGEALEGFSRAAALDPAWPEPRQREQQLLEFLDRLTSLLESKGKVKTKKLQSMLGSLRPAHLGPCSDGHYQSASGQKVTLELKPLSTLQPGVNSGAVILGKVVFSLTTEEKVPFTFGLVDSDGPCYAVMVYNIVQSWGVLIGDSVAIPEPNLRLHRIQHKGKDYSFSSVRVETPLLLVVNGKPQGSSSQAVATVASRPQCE
Experiment: affinity purification with mass spectrometry; EGFP-TTC5 from 293 T-REx TTC5 KO cells, treated with 10 μM colchicine for 0-180 min, GFP-trap agarose, label-free LC-MS/MS

binding: binds
B1: SCAPER (S-Phase Cyclin A Associated Protein in the ER) (protein, UniProt Q9BY12 1-1400)
chain: MMASFQRSNSHDKVRRIVAEEGRTARNLIAWSVPLESKDDDGKPKCQTGGKSKRTIQGTHKTTKQSTAVDCKITSSTTGDKHFDKSPTKTRHPRKIDLRARYWAFLFDNLRRAVDEIYVTCESDQSVVECKEVLMMLDNYVRDFKALIDWIQLQEKLEKTDAQSRPTSLAWEVKKMSPGRHVIPSPSTDRINVTSNARRSLNFGGSTGTVPAPRLAPTGVSWADKVKAHHTGSTASSEITPAQSCPPMTVQKASRKNERKDAEGWETVQRGRPIRSRSTAVMPKVSLATEATRSKDDSDKENVCLLPDESIQKGQFVGDGTSNTIESHPKDSLHSCDHPLAEKTQFTVSTLDDVKNSGSIRDNYVRTSEISAVHIDTECVSVMLQAGTPPLQVNEEKFPAEKARIENEMDPSDISNSMAEVLAKKEELADRLEKANEEAIASAIAEEEQLTREIEAEENNDINIETDNDSDFSASMGSGSVSFCGMSMDWNDVLADYEARESWRQNTSWGDIVEEEPARPPGHGIHMHEKLSSPSRKRTIAESKKKHEEKQMKAQQLREKLREEKTLKLQKLLEREKDVRKWKEELLDQRRRMMEEKLLHAEFKREVQLQAIVKKAQEEEAKVNEIAFINTLEAQNKRHDVLSKLKEYEQRLNELQEERQRRQEEKQARDEAVQERKRALEAERQARVEELLMKRKEQEARIEQQRQEKEKAREDAARERARDREERLAALTAAQQEAMEELQKKIQLKHDESIRRHMEQIEQRKEKAAELSSGRHANTDYAPKLTPYERKKQCSLCNVLISSEVYLFSHVKGRKHQQAVRENTSIQGRELSDEEVEHLSLKKYIIDIVVESTAPAEALKDGEERQKNKKKAKKIKARMNFRAKEYESLMETKNSGSDSPYKAKLQRLAKDLLKQVQVQDSGSWANNKVSALDRTLGEITRILEKENVADQIAFQAAGGLTALEHILQAVVPATNVNTVLRIPPKSLCNAINVYNLTCNNCSENCSDVLFSNKITFLMDLLIHQLTVYVPDENNTILGRNTNKQVFEGLTTGLLKVSAVVLGCLIANRPDGNCQPATPKIPTQEMKNKPSQGDPFNNRVQDLISYVVNMGLIDKLCACFLSVQGPVDENPKMAIFLQHAAGLLHAMCTLCFAVTGRSYSIFDNNRQDPTGLTAALQATDLAGVLHMLYCVLFHGTILDPSTASPKENYTQNTIQVAIQSLRFFNSFAALHLPAFQSIVGAEGLSLAFRHMASSLLGHCSQVSCESLLHEVIVCVGYFTVNHPDNQVIVQSGRHPTVLQKLCQLPFQYFSDPRLIKVLFPSLIAACYNNHQNKIILEQEMSCVLLATFIQDLAQTPGQAENQPYQPKGKCLGSQDYLELANRFPQQAWEEARQFFLKKEKK
